Experimental data: PubChem BioAssay AID1508588 (Peter MacCallum Cancer Centre, 2020)

Screen: 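Genome-wide search for knock-downs that heighten vemurafenib action in melanoma cells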 (primary screen)
Cell system: human WM266.4 melanoma cells (BRAF V600 mutant)
Knock-down reagent: siRNA pool against human genes, 40 nM
Timing: 96 h from transfection to read-out
Conditions: vemurafenib 300 nM (about IC25), added 48 h after transfection, for 48 h; comparison arm got DMSO vehicle only
Measured: 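Cell gain (DAPI nuclei at end minus before drug, mean of two replicates) and medium lactate by absorbance per cell, both as ratio to non-targeting siRNA, also grouped into fold-change classes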
Reading the numbers: cell gain with vemurafenib: higher = more cell gain than with non-targeting siRNA; lactate per cell with vemurafenib: higher = more lactate made per cell
Active means: 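a knock-down counts as enhancing when its fold-change classes with vehicle and with vemurafenib, taken together, show a stronger drug effect on cell gain or lactate per cell; exact class pairs not stated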
Meaning of the calls: active = enhances vemurafenib effect; inactive = no enhancement seen
In all, the deposit lists about 18,000 reagents; below is an unselected part. In the full data, 790 (4.4%) were called active. 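Calls rest on a combination of fold-change classes in drug and vehicle arms, not all shown here.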

With knock-down of SLC30A9 the results were cell gain with vemurafenib 0.3; lactate per cell with vemurafenib 0.96; inactive. SLC67A2 showed cell gain with vemurafenib 0.45; lactate per cell with vemurafenib 1.16; inactive. Against PTBP1 the deposit lists cell gain with vemurafenib 1.29; lactate per cell with vemurafenib 0.7; inactive. Against SMAD3, the values are cell gain with vemurafenib 0.56; lactate per cell with vemurafenib 0.88; inactive. After knock-down of FAM241B, the screen gave cell gain with vemurafenib 0.77; lactate per cell with vemurafenib 1; inactive. IFT140 gave cell gain with vemurafenib 0.8; lactate per cell with vemurafenib 0.58; inactive.

SCNN1A showed cell gain with vemurafenib 0.93; lactate per cell with vemurafenib 0.12; inactive. Depletion of POLR3H came out at: cell gain with vemurafenib 0.41; lactate per cell with vemurafenib 1.14; inactive. SYNPR gave cell gain with vemurafenib 0.63; lactate per cell with vemurafenib 1.23; inactive. Silencing of SLC4A4 resulted in: cell gain with vemurafenib 0.9; lactate per cell with vemurafenib 1.08; inactive. For CYFIP2 the deposit lists cell gain with vemurafenib 0.62; lactate per cell with vemurafenib 0.98; inactive. ADHFE1 gave cell gain with vemurafenib 1.01; lactate per cell with vemurafenib 0.78; inactive.

Against SIAE, the values are cell gain with vemurafenib 0.52; lactate per cell with vemurafenib 1.15; inactive. After knock-down of HDDC3, the screen gave cell gain with vemurafenib 0.25; lactate per cell with vemurafenib 0.87; inactive. Depletion of RGS20 resulted in: cell gain with vemurafenib 0.37; lactate per cell with vemurafenib 0.85; inactive. With knock-down of SLC66A3, the record shows cell gain with vemurafenib 0.04; lactate per cell with vemurafenib 1.21; inactive. Against NKG7, the values are cell gain with vemurafenib 0.7; lactate per cell with vemurafenib 0.88; inactive. MEX3A scored cell gain with vemurafenib 1.12; lactate per cell with vemurafenib 0.86; inactive.

LHFPL5 scored cell gain with vemurafenib 0.45; lactate per cell with vemurafenib 0.52; inactive. After knock-down of RAD51, the screen gave cell gain with vemurafenib -0.23; lactate per cell with vemurafenib 2.58; inactive. Silencing of PRSS12 resulted in: cell gain with vemurafenib 0.33; lactate per cell with vemurafenib 1.26; inactive. ZNF804A showed cell gain with vemurafenib 0.66; lactate per cell with vemurafenib 0.55; inactive. With knock-down of ANKRD42, the screen gave cell gain with vemurafenib 0.77; lactate per cell with vemurafenib 0.43; inactive. OR52B2 scored cell gain with vemurafenib 0.05; lactate per cell with vemurafenib 0.49; inactive.

AMTN scored cell gain with vemurafenib 0.41; lactate per cell with vemurafenib 0.56; inactive. With knock-down of FRA10AC1 the results were cell gain with vemurafenib 0.6; lactate per cell with vemurafenib 1.31; inactive. Silencing of PI4KA came out at: cell gain with vemurafenib 0.56; lactate per cell with vemurafenib 1.29; inactive.

A run of entries from the list above, for reference:
ADHFE1 — cell gain with vemurafenib: 1.01; lactate per cell with vemurafenib: 0.78; Outcome: inactive
SIAE — cell gain with vemurafenib: 0.52; lactate per cell with vemurafenib: 1.15; Outcome: inactive
HDDC3 — cell gain with vemurafenib: 0.25; lactate per cell with vemurafenib: 0.87; Outcome: inactive
RGS20 — cell gain with vemurafenib: 0.37; lactate per cell with vemurafenib: 0.85; Outcome: inactive
